{"source": "PubChem BioAssay AID1259425 (University of Nebraska Medical Center, 2018)", "screen": "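Compare each knockdown with KSR1 silencing using changes in marker transcripts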 (primary screen)", "cells": "HCT116 human colon cancer cells", "reagent": "siRNA pool against human genes, 50 nM siRNA", "measured": "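mRNA of six signature genes measured together by branched-DNA assay after 50 nM siRNA pool, blank removed, divided by geometric mean of two housekeeping genes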", "direction": "BNIP3L mRNA: higher = more BNIP3L transcript after knockdown", "note": "The deposit covers about 14,000 reagents; below is a part drawn at random. Further read-outs or replicates are left out here. The record does not give: the time to read-out."}
{"gene":"OTUD3 (OTU deubiquitinase 3)","BNIP3L mRNA, set 1":0.118}
{"gene":"SS18 (SS18 subunit of BAF chromatin remodeling complex)","BNIP3L mRNA, set 1":0.102}
{"gene":"ZNF500 (zinc finger protein 500)","BNIP3L mRNA, set 1":0.17}
{"gene":"NMI (N-myc and STAT interactor)","BNIP3L mRNA, set 1":0.137}
{"gene":"MYH1 (myosin heavy chain 1)","BNIP3L mRNA, set 1":0.14}
{"gene":"PCSK1 (proprotein convertase subtilisin/kexin type 1)","BNIP3L mRNA, set 1":0.217}
{"gene":"BTNL3 (butyrophilin like 3)","BNIP3L mRNA, set 1":0.0798}
{"gene":"EDN3 (endothelin 3)","BNIP3L mRNA, set 1":0.0741}
{"gene":"ZG16B (zymogen granule protein 16B)","BNIP3L mRNA, set 1":0.168}
{"gene":"SPP1 (secreted phosphoprotein 1)","BNIP3L mRNA, set 1":0.192}
{"gene":"ARHGAP45 (Rho GTPase activating protein 45)","BNIP3L mRNA, set 1":0.0609}
{"gene":"IRS4 (insulin receptor substrate 4)","BNIP3L mRNA, set 1":0.101}
{"gene":"TMOD3 (tropomodulin 3)","BNIP3L mRNA, set 1":0.116}
{"gene":"DHCR24 (24-dehydrocholesterol reductase)","BNIP3L mRNA, set 1":0.121}
{"gene":"FBXO9 (F-box protein 9)","BNIP3L mRNA, set 1":0.0455}
{"gene":"GAS7 (growth arrest specific 7)","BNIP3L mRNA, set 1":0.0992}
{"gene":"GMNN (geminin DNA replication inhibitor)","BNIP3L mRNA, set 1":0.188}
{"gene":"RPL18A (ribosomal protein L18a)","BNIP3L mRNA, set 1":0.595}
{"gene":"RAB5A (RAB5A, member RAS oncogene family)","BNIP3L mRNA, set 1":0.0991}
{"gene":"TAF4B (TATA-box binding protein associated factor 4b)","BNIP3L mRNA, set 1":0.103}
{"gene":"ATP13A4 (ATPase 13A4)","BNIP3L mRNA, set 1":0.623}
{"gene":"ZNF580 (zinc finger protein 580)","BNIP3L mRNA, set 1":0.143}
{"gene":"PPP2R5D (protein phosphatase 2 regulatory subunit B'delta)","BNIP3L mRNA, set 1":0.0981}
{"gene":"EFL1 (elongation factor like GTPase 1)","BNIP3L mRNA, set 1":0.151}
{"gene":"COX4I1 (cytochrome c oxidase subunit 4I1)","BNIP3L mRNA, set 1":0.0741}
{"gene":"SPAG8 (sperm associated antigen 8)","BNIP3L mRNA, set 1":0.0815}
{"gene":"KRTAP9-2 (keratin associated protein 9-2)","BNIP3L mRNA, set 1":0.153}
{"gene":"GLP2R (glucagon like peptide 2 receptor)","BNIP3L mRNA, set 1":0.127}
{"gene":"SAMD4B (sterile alpha motif domain containing 4B)","BNIP3L mRNA, set 1":0.0924}
{"gene":"FGA (fibrinogen alpha chain)","BNIP3L mRNA, set 1":0.0761}
{"gene":"OR2H2 (olfactory receptor family 2 subfamily H member 2)","BNIP3L mRNA, set 1":0.158}
{"gene":"CCDC88A (coiled-coil and HOOK domain protein 88A)","BNIP3L mRNA, set 1":0.103}
{"gene":"TNFAIP1 (TNF alpha induced protein 1)","BNIP3L mRNA, set 1":0.127}
{"gene":"OR7E91P (olfactory receptor family 7 subfamily E member 91 pseudogene)","BNIP3L mRNA, set 1":0.232}
{"gene":"SLC6A13","BNIP3L mRNA, set 1":0.121}
{"gene":"SNRPA (small nuclear ribonucleoprotein polypeptide A)","BNIP3L mRNA, set 1":0.158}

Reprinted from above for reference:
{"gene":"ARHGAP45 (Rho GTPase activating protein 45)","BNIP3L mRNA, set 1":0.0609}
{"gene":"IRS4 (insulin receptor substrate 4)","BNIP3L mRNA, set 1":0.101}
{"gene":"TMOD3 (tropomodulin 3)","BNIP3L mRNA, set 1":0.116}
{"gene":"DHCR24 (24-dehydrocholesterol reductase)","BNIP3L mRNA, set 1":0.121}
{"gene":"FBXO9 (F-box protein 9)","BNIP3L mRNA, set 1":0.0455}
{"gene":"GAS7 (growth arrest specific 7)","BNIP3L mRNA, set 1":0.0992}
